# Results reported in PubChem BioAssay AID1347423 (Functional Genomics Laboratory (NCATS/FGL), 2020).
# Screen size: about 52,000 sequences; about 210 (0.4%) were called active.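 How the source made its calls: active means gene whose silencing raises cell survival under the drug, median off-target-corrected z-score across its silencing RNAs 2 or more; inactive means the rest.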 This is one part of the list.
# Experiment: Resistance to Poly (ADP-Ribose) Polymerase inhibitor: Gene Identification via Genome-wide siRNA Screen
# Conditions: mouse BRCA2 R2336H ES cells, olaparib, CellTiter-Glo viability; active compounds read high
# In short: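 Mouse BRCA2 R2336H ES cells were reverse-transfected with siRNA (20 nM final), treated at 48 h with 500 nM olaparib, and read by CellTiter-Glo after 72 h. Scores: MAD-based z per siRNA, median per gene, seed off-target correction.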
row,Sequence,z-score
1,GGCCACCUAAAACUAUAUATT against Cd59a,inactive: -1.7
2,GGAAAAGAAAGAAGCUUUUTT against 2600005C20Rik,inactive: -0.861
3,CCUGGAGAUUCAGUACGAATT against 4631426H08Rik,inactive: 0.104
4,GGAUCAAAUUACAGAUCUUTT against Eef1e1,inactive: -2.2
5,CCCAAUGUUUCUAAUCAUGTT against Arhgap12,inactive: 0.506
6,GCUUUGGAUAGUAGACAGCTT against MGC65590,inactive: 0.73
7,GGAAAGAAUGAGGAUGUGGTT against Pitx2,inactive: -0.64
8,GGUAAAAGUGGGUAGGAAATT against Ptprh,inactive: 0.929
9,GAUCUUCACCAAUAAGUGUTT against 1110060O18Rik,inactive: 1.37
10,GGAGUGUAAUAACUUCUUATT against E430025E21Rik,inactive: -0.323
11,GGAGAACAUCAAGAACAAUTT against Ap2m1,inactive: -0.626
12,GGCAAUUUGUGGAUUAUUGTT against Olfr1105,inactive: -0.926
13,GGAGUGGUAUUUUUACAAUTT against Slc34a1,inactive: 0.474
14,GGAAGAAACGGAGACUCAATT against Neud4,inactive: 0.699
15,GGGCACGAUCCUCUUCAACTT against Nr0b2,inactive: 2.12
16,CGAGUUCCUAUGUUGGUGCTT against Cldn2,inactive: 5.71
17,GGAAGUUGUUUUGUUGGACTT against Epha2,inactive: -0.878
18,GGAUGAGAACAACUCUGCUTT against AI841794,inactive: 2.76
19,GGAUUUUCUUACACGGAUGTT against Cyct,inactive: -1.09
20,GGCAUUUUCACAAAAGACUTT against Rab23,inactive: -1.35
21,GGCUUUUGGCUUCAACCCUTT against Slc39a14,inactive: -0.434
22,GGUACGGACCCACAUUCAATT against C530024P05Rik,inactive: -0.785
23,GGAAACGUGGGCAUGAUCATT against Olfr944,inactive: -2.59
24,GGCCAUAUCUUAAAGUUAATT against Hcfc1r1,inactive: -0.196
25,GGCUCUGUGAAGAAAGUCATT against Cnn3,inactive: -0.0277
26,CGUAAAGUGACCUUAAGAATT against Lrrfip1,inactive: -0.283

row,Sequence,z-score
1,GCCAUUGGAAUUUUGAAAUTT against 1700003M02Rik,inactive: 0.796
2,GGCUCUUCUAUUCUGAACUTT against Ly86,inactive: -0.389
3,CCAGAAUGUCACUGCCAGUTT against Zfy1,inactive: 0.0122
4,CGGUAAAUGGUCAAGAGUATT against Rheb,inactive: 0.395
5,GGCUGAAUCUUGAAAAUGATT against Cntnap1,inactive: 1.76
6,CCGUUGUCAUGUUUUAAAGTT against Prdx6,inactive: 0.15
7,GGCCUAUUUGUUUUUGAAATT against Mthfd2,inactive: 0.0408
8,GGUGGUCUGAGAAAUACUCTT against 0610037L13Rik,inactive: 0.331
9,GCCUUGUAUACACUUGUUATT against Mrps27,inactive: 0.885
10,CCUGGAGAGUGAUACGUUCTT against 0610012A11Rik,inactive: -0.453
11,GGGAAAGAAAGUCAGCUCUTT against Ptprf,inactive: 0.864
12,GGAGUGAAAUCUCCUAAAATT against Tmsb10,inactive: -0.871
13,GGAUCCUGAAAUCAAAACUTT against Mbl1,inactive: 0.479
14,GGGUCAAUCAUGAAUGUUUTT against Pak4,inactive: -1.4
15,GGUCCCGGAACGGUACUUUTT against Paqr3,inactive: -0.788
16,GCUGUUCAUAUAUCUUGCUTT against Olfr1386,inactive: 0.621
17,CCAUAGCAGGGAAGAUUUUTT against Kcnd2,inactive: -0.591
18,GGCAAGAGAAUUCAGAUCUTT against Slc5a1,inactive: 2.6
19,GGUCACACUGGUGAAGUCUTT against Tjp1,inactive: 0.395
20,GGAUGAGAAUAGCUAGAAATT against Zfp553,inactive: -0.0959
21,GGAAGCUGAAAGAAGGAGATT against Mx1,inactive: 0.394
22,GGACAAGCUAAGCAUUGAGTT against Atp6ap1,inactive: -1.98
23,GCGACUGGCGCAACAAAAUTT against Sox18,inactive: 2.73
24,GGGACAGUUUUCGGACUUCTT against Edg6,inactive: 0.617
25,GGAUACUUUGACCAAGUCUTT against Irx6,inactive: -1.02
26,GCCAUUCCAAAGUAUUACCTT against Mrpl34,inactive: -0.567

row,Sequence,z-score
1,GGUAUUCCUUUUUUGUAGCTT against Oact1,inactive: 1.95
2,GGUUACUUCAAAGACAAAGTT against 3110004H13Rik,inactive: 0.0757
3,GCUUGGAGUCGUAGUUUCUTT against F730031O20Rik,inactive: -0.36
4,GGAGCUAGAACUCAAUGAATT against Lrrn6a,inactive: 1.61
5,GCCAUGCCUUAAUCUUGGUTT against F730004D16Rik,inactive: -0.78
6,GGCUCAUGAGAAGACACACTT against Zbtb17,inactive: -0.726
7,GGAACUAAUGUGCAGGAGGTT against Suclg2,inactive: 1.31
8,GGAUAUCACCCACAAUAAATT against Vps28,inactive: -2.47
9,GCAUGUCGAGUUUGAUUUCTT against Wdr12,inactive: -1.27
10,CCACACGUUCCAUUUCUCGTT against 2310016C08Rik,inactive: 1.08
11,CGGACACACUUUGUUAUUATT against 4833420G17Rik,inactive: 1.87
12,GGAGGAUAUACACAACAGGTT against Wbp5,inactive: 0.752
13,GGGCUAUAUAUAUUUCCACTT against Asns,inactive: -2.88
14,GGAGAAAAGCUGACCUUUGTT against Gstm5,inactive: -2.35
15,CCCAGAAGAGACUAUACUGTT against Mylc2pl,inactive: -0.437
16,CGUACAUCUGUCCUACAUGTT against 2810441K11Rik,inactive: -1.53
17,CCUUAGUAUGUAUGUGGUATT against 4933403G14Rik,inactive: -0.0446
18,CGGCCAACUUUCAUUGAUCTT against Zfpn1a4,inactive: -0.319
19,GCCUAAACCUGAGUUAUAATT against Lrig1,inactive: 0.0302
20,GGUAGAGAGGAAUUCAUAATT against Lrp11,inactive: -2.56
21,GGUACCAUUCGUUCAAACCTT against 3830406C13Rik,inactive: -0.156
22,GCACCAUACUAGGAUCUGCTT against Slc24a5,inactive: -0.37
23,GGCAAAGCAAGCUAUAUCCTT against Blr1,inactive: 1.28
24,GGAUUCUCCAUUCUCAGUGTT against Tde2l,inactive: -1.03
25,GGUCAUUUGUUUUCAGGGATT against A330080J22Rik,inactive: -0.0644
26,GGAAGAGGUGGACAAGAUGTT against Gps2,inactive: -0.729

row,Sequence,z-score
1,GGGCCACUUUCCAAUUCAATT against Tectb,inactive: 0.856
2,GUGGUUGUUUUCGUCCUUCTT against Olfr821,inactive: -0.835
3,GCUUCUGAAUAUCAGACGGTT against BC062109,inactive: 0.0847
4,CGGUGGAAUUCGUUAGAAGTT against Ireb2,inactive: -0.959
5,GGUAACUGACUAAUGGAAGTT against Tcl1b4,inactive: 0.187
6,CCAAUGAAACUUCUAGACUTT against Gjb2,inactive: 0.858
7,GCUUUUUAGGCAUUGGUAATT against Lif,inactive: 0.884
8,GGAUGUUGGAAGAAGGCUUTT against Kcna5,inactive: -0.361
9,GCAUUUCACCGUCAUGAACTT against BC055368,inactive: -0.127
10,GGAAGAAAGUGGCAUAGCCTT against Sirt7,inactive: 0.259
11,GGAGCAUAUACAACUCAGCTT against AV340375,inactive: -0.446
12,GGUUUGCAAUAAUUUUCCCTT against Cyp2c66,inactive: 0.303
13,GCAUUCAAUUCUCUAUGGUTT against BC017643,inactive: 1.26
14,GGGAGAAUCGUCAAUGAUGTT against Dpysl3,inactive: -0.0761
15,GGCAUUUCAUAGAGAGAAUTT against Oraov1,inactive: -1.5
16,GCUCCCUUAGGCUAUGAUATT against Ash2l,inactive: -1.36
17,GCAACAUAAAUCCCAAAGUTT against Myo1h,inactive: 0.569
18,GGCCUUGUGUGUCCAUCAATT against 4933421I07Rik,inactive: 0.0613
19,GGCCAGUUUAAACCAGUCUTT against 4930488L10Rik,inactive: -0.757
20,GGAAGUGCUUAUGUCCUUATT against Cited2,inactive: -0.0128
21,CCCGAUUAAAGUUUUGACCTT against Pbx4,inactive: 1.06
22,GGCUUACCGAAAGCAAGCCTT against Dnajb4,inactive: -0.777
23,GGAGAAAAACACAUCCCAUTT against Foxa2,inactive: 0.21
24,GGGUGUCAUCCUUAUCCUGTT against Olfr655,inactive: 1.21
25,GGAAGGAUCCCAAAUUCAGTT against Pbp,inactive: 0.36
26,GCCGACUCAUGGUUUAGAATT against Tmem18,inactive: -0.47

# For convenience, some entries already given.
row,Sequence,z-score
21,GGUACCAUUCGUUCAAACCTT against 3830406C13Rik,inactive: -0.156
22,GCACCAUACUAGGAUCUGCTT against Slc24a5,inactive: -0.37
23,GGCAAAGCAAGCUAUAUCCTT against Blr1,inactive: 1.28
24,GGAUUCUCCAUUCUCAGUGTT against Tde2l,inactive: -1.03
25,GGUCAUUUGUUUUCAGGGATT against A330080J22Rik,inactive: -0.0644
26,GGAAGAGGUGGACAAGAUGTT against Gps2,inactive: -0.729
1,GGGCCACUUUCCAAUUCAATT against Tectb,inactive: 0.856
2,GUGGUUGUUUUCGUCCUUCTT against Olfr821,inactive: -0.835
3,GCUUCUGAAUAUCAGACGGTT against BC062109,inactive: 0.0847
4,CGGUGGAAUUCGUUAGAAGTT against Ireb2,inactive: -0.959
5,GGUAACUGACUAAUGGAAGTT against Tcl1b4,inactive: 0.187
6,CCAAUGAAACUUCUAGACUTT against Gjb2,inactive: 0.858
7,GCUUUUUAGGCAUUGGUAATT against Lif,inactive: 0.884
8,GGAUGUUGGAAGAAGGCUUTT against Kcna5,inactive: -0.361
9,GCAUUUCACCGUCAUGAACTT against BC055368,inactive: -0.127
10,GGAAGAAAGUGGCAUAGCCTT against Sirt7,inactive: 0.259
11,GGAGCAUAUACAACUCAGCTT against AV340375,inactive: -0.446
12,GGUUUGCAAUAAUUUUCCCTT against Cyp2c66,inactive: 0.303
13,GCAUUCAAUUCUCUAUGGUTT against BC017643,inactive: 1.26
14,GGGAGAAUCGUCAAUGAUGTT against Dpysl3,inactive: -0.0761
15,GGCAUUUCAUAGAGAGAAUTT against Oraov1,inactive: -1.5
16,GCUCCCUUAGGCUAUGAUATT against Ash2l,inactive: -1.36
17,GCAACAUAAAUCCCAAAGUTT against Myo1h,inactive: 0.569
18,GGCCUUGUGUGUCCAUCAATT against 4933421I07Rik,inactive: 0.0613
19,GGCCAGUUUAAACCAGUCUTT against 4930488L10Rik,inactive: -0.757
20,GGAAGUGCUUAUGUCCUUATT against Cited2,inactive: -0.0128
21,CCCGAUUAAAGUUUUGACCTT against Pbx4,inactive: 1.06
22,GGCUUACCGAAAGCAAGCCTT against Dnajb4,inactive: -0.777
23,GGAGAAAAACACAUCCCAUTT against Foxa2,inactive: 0.21
